Laboratory results taken from US20240392037A1 (UNIVERSITY OF PITTSBURGH OF THE COMMONWEALTH SYSTEM OF …, published 2024).
These are yes or no findings as the source states them, for the method shown. Some results given as binding are weak or reduced against the parent protein; the word gives no strength. For part of these data: Where a sequence is shown, tags or fusion partners need not be part of it.

By UniProt entry, the sequences of proteins in these tests, tags left out. Where a name states a change or a piece, a line headed by the entry shows the natural chain unless it says otherwise.
UniProt P08246: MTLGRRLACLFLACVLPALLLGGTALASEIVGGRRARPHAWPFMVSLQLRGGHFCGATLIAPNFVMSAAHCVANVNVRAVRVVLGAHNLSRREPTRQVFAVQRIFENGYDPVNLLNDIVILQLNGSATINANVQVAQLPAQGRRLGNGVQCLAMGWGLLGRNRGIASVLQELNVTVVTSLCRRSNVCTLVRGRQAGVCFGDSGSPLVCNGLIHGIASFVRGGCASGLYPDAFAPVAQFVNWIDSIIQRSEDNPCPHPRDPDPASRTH

What was measured:
[1] = biological target: human neutrophil elastase (NE) polypeptide (human) (UniProt P08246); assay: ELISA, antigen coated at 50 ng/well
[2] = biological target: human neutrophil elastase (NE) polypeptide (human) (UniProt P08246); assay: ELISA, NE coated at 50 ng/well, anti-FLAG-HRP detection
[3] = biological target: human neutrophil elastase (NE) polypeptide (human) (UniProt P08246); assay: ELISA on recombinant NE coated at 50 ng/well, anti-FLAG-HRP detection
[4] = biological target: human neutrophil elastase (NE) polypeptide (human) (UniProt P08246); assay: ELISA, NE coated at 50 ng/well
[5] = biological target: human neutrophil elastase (NE) polypeptide (human) (UniProt P08246); assay: ELISA on recombinant NE coated at 50 ng/well
[6] = biological target: human neutrophil elastase (NE) polypeptide (human) (UniProt P08246); assay: BLItz, biotinylated recombinant NE on streptavidin biosensor

Measured: binding

B1: VH 1D1.43 (other)
VH: EVQLVESGGGVVQPGRSLRLSCAASGFTFSNYAMHWVRQAPGKGLEWVAVISYDGSNKYYADSVKGRFTISRDDSTNTLYLQMNNLRAEDTAVYYCAKDLPWEWELDYWGQGTLVTVSS
notes: Expressed in E. coli, purified on Ni-NTA and detected with anti-FLAG antibody; also called Clone #2; #2 (VH)
binds: [1] | [2] | [3]

B2: VH-Fc 1D1.43 (Fc fusion)
chain: EVQLVESGGGVVQPGRSLRLSCAASGFTFSNYAMHWVRQAPGKGLEWVAVISYDGSNKYYADSVKGRFTISRDDSTNTLYLQMNNLRAEDTAVYYCAKDLPWEWELDYWGQGTLVTVSS
notes: VH 1D1.43 converted to a bivalent antibody by fusion to human IgG1 Fc; also called VH-Fc ID1.43; not shown: human IgG1 Fc
binds: [4] | [5] | [6]
